Measured data: PubChem BioAssay AID1053208 (Peter MacCallum Cancer Centre, 2014)
Shown is one part, drawn at random, of about 17,000 reagents tested. In the full data, 788 (4.7%) were called active. 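Calls rest on z-score classes alone; an extra cut-off of viability at most 70% of control was not applied to them.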 Entries without a mark were called inactive. Reagents against one gene are numbered here. Not all columns of the deposit are shown. No sequences are given here.

Screen: 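Genes whose silencing cuts survival of bone tumour cells only with doxorubicin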 (primary screen)
Cells: mouse osteosarcoma cells, early-passage culture from an engineered mouse model of fibroblastic bone tumour
Reagent: siRNA pool against mouse genes, 40 nM
Duration: about 120 h (48 h before drug, then 72 h with drug)
Conditions: doxorubicin 100 nM for 72 h, roughly 30-40% inhibitory dose
Measurement: 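Viability read as ATP luminescence after 72 h of 100 nM doxorubicin or none, duplicate wells averaged, scaled to non-targeting siRNA, then expressed as robust z-scores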
Scale: viability z-score with doxorubicin: higher = more viable cells under doxorubicin; viability z-score without drug: higher = more viable cells with knock-down alone
Active means: 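a pool counts as active when its viability z-score with doxorubicin is -2 or below and its z-score without drug lies between -2 and 2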

no.	Target gene	reagent no.	combined z-score class	viability z-score with doxorubicin	viability z-score without drug
1	Sod1 (GeneID 20655)	1	no change with or without drug	-1.01	-0.84
2	Or2z9 (GeneID 258532)	1	no change with or without drug	0	-1.01
3	Serac1 (GeneID 321007)	1	no change with or without drug	-0.56	0.17
4	Ccl9 (GeneID 20308)	1	no change with or without drug	1.12	0.67
5	Ptp4a1 (GeneID 19243)	1	high cell count with and without drug	2.02	2.7
6	Pdia4 (GeneID 12304)	1	no change with or without drug	0.34	-1.01
7	HSPG2	1	no change with or without drug	-0.67	-1.18
8	Epdr1 (GeneID 105298)	1	no change with or without drug	0.79	0.84
9	Epdr1 (GeneID 105298)	2	no change with or without drug	-1.01	-1.35
10	Chodl (GeneID 246048)	1	no change with or without drug	-0.67	0.51
11	Strn4 (GeneID 97387)	1	no change with or without drug	0.34	-0.34
12	Zfp354b (GeneID 27274)	1	no change with or without drug	-1.57	0.34
13	AB124611 (GeneID 382062)	1	no change with or without drug	1.46	-0.51
14	6330500D04RIK	1	no change with or without drug	-0.45	0.67
15	Psma7 (GeneID 26444)	1	low cell count with and without drug	-5.4	-4.22
16	Or1e1 (GeneID 258925)	1	no change with or without drug	-1.12	0.17
17	Pex11a (GeneID 18631)	1	no change with or without drug	0.11	0.84
18	Acr (GeneID 11434)	1	no change with or without drug	0.67	-0.84
19	Cxcl1 (GeneID 14825)	1	no change with or without drug	0.67	1.01
20	Ubash3a (GeneID 328795)	1	no change with or without drug	-0.45	0.51
21	Nmd3 (GeneID 97112)	1	no change with or without drug	-1.35	-0.17
22	Il21r (GeneID 60504)	1	no change with or without drug	-0.67	-1.85
23	Apol8 (GeneID 239552)	1	no change with or without drug	-0.11	0.17
24	Or4a81 (GeneID 258468)	1	no change with or without drug	0	-0.84
25	Cbr3 (GeneID 109857)	1	no change with or without drug	0.22	-0.17
26	Cbln4 (GeneID 228942)	1	no change with or without drug	-1.57	-0.34
27	Arrdc3 (GeneID 105171)	1	no change with or without drug	0.79	0.34
28	D7Ertd413e (GeneID 52325)	1	no change with or without drug	1.12	-1.35
29	Slc5a1 (GeneID 20537)	1	no change with or without drug	-1.57	-1.01
30	Creld2 (GeneID 76737)	1	no change with or without drug	-0.56	0.84
31	Gabra6 (GeneID 14399)	1	no change with or without drug	1.12	-0.34
32	Pdha2 (GeneID 18598)	1	no change with or without drug	0.22	-0.17
33	Ifi27l2a (GeneID 76933)	1	high cell count with and without drug	2.36	2.19
34	2010013B10RIK	1	no change with or without drug	1.35	0.51
35	Reps2 (GeneID 194590)	1	no change with or without drug	0.45	0.51
36	Mamstr (GeneID 74490)	1	no change with or without drug	-0.9	0
37	1110038F14Rik (GeneID 117171)	1	no change with or without drug	-0.22	-0.51
38	Sesn2 (GeneID 230784)	1	no change with or without drug	0.45	0.67
39	Zfp60 (GeneID 22718)	1	high cell count without drug only	0.22	2.36
40	Zfp60 (GeneID 22718)	2	no change with or without drug	1.12	1.69
41	Magea9-ps (GeneID 195772)	1	low cell count with and without drug	-2.7	-3.04
42	Cd300ld (GeneID 217305)	1	no change with or without drug	-0.11	0.84
43	Msrb1 (GeneID 27361)	1	no change with or without drug	0.45	0.84
44	Mertk (GeneID 17289)	1	no change with or without drug	0.9	0.17
45	Nipsnap1 (GeneID 18082)	1	high cell count with doxorubicin only	2.92	0.17
46	Fgf21 (GeneID 56636)	1	no change with or without drug	-1.57	0
47	Chga (GeneID 12652)	1	no change with or without drug	-1.12	-0.84
48	Myh4 (GeneID 17884)	1	no change with or without drug	0.67	0.51
49	Or5ak22 (GeneID 258865)	1	no change with or without drug	-0.11	-0.51
50	F10 (GeneID 14058)	1	low cell count with doxorubicin only (active)	-2.36	-0.51

Records listed above with an active call:
Target gene	reagent no.	combined z-score class	viability z-score with doxorubicin	viability z-score without drug
F10 (GeneID 14058)	1	low cell count with doxorubicin only (active)	-2.36	-0.51
